Measurements: PMC3169599
No constants are given. Whether binding was seen depends on the method and setting. In cells and extracts the contact can be indirect. Here binding means that the protein was enriched with, or labelled near, the bait; the list need not be complete.

Protein sequences, listed by entry. Tags and fused reporters are not part of them.
UniProt P51810: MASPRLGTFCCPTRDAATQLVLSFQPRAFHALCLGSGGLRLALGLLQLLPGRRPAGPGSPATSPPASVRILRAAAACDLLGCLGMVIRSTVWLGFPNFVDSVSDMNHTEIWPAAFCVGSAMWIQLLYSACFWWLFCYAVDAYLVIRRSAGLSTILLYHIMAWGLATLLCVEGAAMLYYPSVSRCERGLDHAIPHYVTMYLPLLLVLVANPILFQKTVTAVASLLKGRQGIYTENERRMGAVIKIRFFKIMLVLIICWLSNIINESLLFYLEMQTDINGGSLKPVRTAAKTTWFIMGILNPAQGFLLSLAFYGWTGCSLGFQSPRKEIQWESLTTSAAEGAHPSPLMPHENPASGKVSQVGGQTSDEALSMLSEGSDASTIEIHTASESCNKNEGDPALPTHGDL
UniProt P08754: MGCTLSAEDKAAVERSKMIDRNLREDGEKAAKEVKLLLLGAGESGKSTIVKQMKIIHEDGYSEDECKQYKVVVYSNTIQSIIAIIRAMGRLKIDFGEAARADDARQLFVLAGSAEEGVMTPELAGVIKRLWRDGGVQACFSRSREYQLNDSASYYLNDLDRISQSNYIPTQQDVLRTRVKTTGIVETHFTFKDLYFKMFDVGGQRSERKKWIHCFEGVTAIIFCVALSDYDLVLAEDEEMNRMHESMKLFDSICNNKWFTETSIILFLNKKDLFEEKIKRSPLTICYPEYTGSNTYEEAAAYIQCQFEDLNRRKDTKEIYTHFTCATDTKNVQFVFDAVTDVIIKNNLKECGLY

Molecular target: OA1 (human ocular albinism type 1 G-protein-coupled receptor), endogenous in RPE (human (endogenous in RPE)) (UniProt P51810)
Assay: affinity purification with mass spectrometry; adult human RPE lysate immunoprecipitated with anti-OA1; SDS-PAGE, Coomassie bands at 39-41 kDa and 45-48 kDa excised, trypsin digestion, nLC-MSMS, Mascot search

binding: binds
Substance: Gαi3 (guanine nucleotide binding protein, alpha inhibiting activity polypeptide 3), endogenous in human RPE (from UniProt P08754 1-354)
